Measurements taken from doi:10.1101/2024.11.13.623339.
These are yes or no findings as the source states them, for the method shown. For part of these data: Binding seen in cells or lysates may run through a third protein. Some binding calls cover weakened binding; strength is not graded here. Sequences can lack the tags named with a protein.

Legend:
[1] = molecular target: T1, ATP9B, tagged at the C-terminus with HA or FLAG (UniProt O43861); experiment: co-IP
T1 sequence: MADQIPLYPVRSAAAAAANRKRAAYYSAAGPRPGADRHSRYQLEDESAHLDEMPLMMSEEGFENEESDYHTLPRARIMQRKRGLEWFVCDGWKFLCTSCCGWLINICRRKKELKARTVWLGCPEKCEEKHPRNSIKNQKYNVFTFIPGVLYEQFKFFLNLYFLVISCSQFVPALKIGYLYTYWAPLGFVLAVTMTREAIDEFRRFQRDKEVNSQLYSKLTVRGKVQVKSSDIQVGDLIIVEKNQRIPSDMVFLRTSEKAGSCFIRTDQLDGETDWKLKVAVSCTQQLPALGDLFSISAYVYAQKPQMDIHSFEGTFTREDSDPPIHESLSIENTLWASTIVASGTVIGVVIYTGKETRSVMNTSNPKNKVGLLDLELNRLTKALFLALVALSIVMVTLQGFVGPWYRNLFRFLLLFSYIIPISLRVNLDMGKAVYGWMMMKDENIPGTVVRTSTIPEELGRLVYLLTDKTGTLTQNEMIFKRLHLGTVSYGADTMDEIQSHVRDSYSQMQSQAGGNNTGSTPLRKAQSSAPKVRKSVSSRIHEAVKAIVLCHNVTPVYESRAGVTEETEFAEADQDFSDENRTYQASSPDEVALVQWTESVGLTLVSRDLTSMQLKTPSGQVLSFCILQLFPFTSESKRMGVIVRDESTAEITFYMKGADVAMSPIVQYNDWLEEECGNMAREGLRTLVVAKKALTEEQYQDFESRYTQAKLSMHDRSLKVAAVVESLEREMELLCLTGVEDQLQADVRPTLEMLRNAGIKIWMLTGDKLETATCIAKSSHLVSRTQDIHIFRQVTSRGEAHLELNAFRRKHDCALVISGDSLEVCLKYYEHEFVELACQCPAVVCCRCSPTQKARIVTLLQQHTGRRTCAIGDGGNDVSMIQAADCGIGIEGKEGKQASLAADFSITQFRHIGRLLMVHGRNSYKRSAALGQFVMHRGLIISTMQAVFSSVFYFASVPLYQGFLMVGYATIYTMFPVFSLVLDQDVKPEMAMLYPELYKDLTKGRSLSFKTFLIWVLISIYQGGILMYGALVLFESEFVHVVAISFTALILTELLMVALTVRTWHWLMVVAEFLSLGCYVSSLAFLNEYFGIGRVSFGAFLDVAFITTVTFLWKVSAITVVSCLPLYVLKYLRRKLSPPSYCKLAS

[2] = molecular target: T2, ATP9A, tagged at the C-terminus with HA or FLAG (UniProt O75110); experiment: co-IP
T2 sequence: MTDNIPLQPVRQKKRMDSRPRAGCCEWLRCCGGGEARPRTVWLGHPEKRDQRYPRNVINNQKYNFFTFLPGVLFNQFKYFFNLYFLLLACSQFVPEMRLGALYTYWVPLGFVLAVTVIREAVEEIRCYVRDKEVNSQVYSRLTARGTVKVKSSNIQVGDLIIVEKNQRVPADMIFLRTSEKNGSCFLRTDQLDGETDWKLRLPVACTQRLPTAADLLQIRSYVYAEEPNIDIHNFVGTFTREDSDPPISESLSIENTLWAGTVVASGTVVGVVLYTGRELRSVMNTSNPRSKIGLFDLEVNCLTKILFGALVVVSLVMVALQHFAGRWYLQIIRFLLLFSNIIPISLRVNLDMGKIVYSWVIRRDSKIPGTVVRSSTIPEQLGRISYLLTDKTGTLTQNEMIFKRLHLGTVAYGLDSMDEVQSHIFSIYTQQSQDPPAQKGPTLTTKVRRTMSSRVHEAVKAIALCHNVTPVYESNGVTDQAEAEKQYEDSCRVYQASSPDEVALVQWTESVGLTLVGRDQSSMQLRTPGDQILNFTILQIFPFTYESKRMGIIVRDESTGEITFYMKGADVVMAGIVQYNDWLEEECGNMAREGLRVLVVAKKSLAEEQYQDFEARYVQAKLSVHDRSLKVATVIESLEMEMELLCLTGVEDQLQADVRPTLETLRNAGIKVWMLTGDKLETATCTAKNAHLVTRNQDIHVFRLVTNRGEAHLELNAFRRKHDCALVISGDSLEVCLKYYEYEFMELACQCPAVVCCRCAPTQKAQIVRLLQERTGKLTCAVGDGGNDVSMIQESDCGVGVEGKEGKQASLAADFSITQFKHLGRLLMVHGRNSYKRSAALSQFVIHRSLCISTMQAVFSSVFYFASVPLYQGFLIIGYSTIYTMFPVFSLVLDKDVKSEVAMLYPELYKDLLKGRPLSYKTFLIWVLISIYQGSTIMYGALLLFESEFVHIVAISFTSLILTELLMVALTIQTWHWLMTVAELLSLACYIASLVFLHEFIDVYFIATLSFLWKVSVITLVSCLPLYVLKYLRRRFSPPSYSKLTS

[3] = molecular target: T2, ATP9A, tagged at the C-terminus with HA or FLAG; experiment: native gel or EMSA
[4] = molecular target: T1, ATP9B, tagged at the C-terminus with HA or FLAG; experiment: native gel or EMSA

Measured: binding

B1: ATP9A, tagged at the C-terminus with HA or FLAG (protein, UniProt O75110 1-1047)
chain: T2 sequence
binds: [1] | [2] | [3]

B2: ATP9B, tagged at the C-terminus with HA or FLAG (protein, UniProt O43861 1-1147)
chain: T1 sequence
binds: [1] | [2] | [4]
